# Laboratory results: PubChem BioAssay AID1347426 (Functional Genomics Laboratory (NCATS/FGL), 2020)
# Among all 31,000 sequences or so, about 1,400 (4.5%) were called active.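 Rule for the calls: active = median seed-adjusted z-score above 1 or below -1; inactive = the rest.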 This is one part of the list.
# Experiment: Novel Modifiers of Survival Motor Neuron (SMN) Protein: Gene Identification via Genome-wide siRNA Screen;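 note: luminescence tracks full-length SMN protein made from the SMN2 reporter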
# Details: HEK293T SMN2-luciferase reporter, siRNA knockdown, 72 h; actives lie on both sides
# Source text: Spinal muscular atrophy (SMA) is the most common neuromuscular autosomal recessive disorder and one of the leading genetic causes of infant death. SMA results from mutations inducing loss of function or deletion in the survival of motor neuron-1 gene (SMN1), leading to deficiency of the survival motor neuron (SMN) protein. Although a second nearly identical gene, SMN2, is retained in humans, its expression primarily produces an aberrantly spliced isoform that is largely unstable and quickly degraded. We performed a genome-wide RNAi screen using a cell-based reporter assay to identify genes and pathways that modulate SMN protein stability. The screen identified over 200 genes that led to the greatest increase or decrease in luciferase expression.
# Using HEK293T cells stably expressing a luciferase reporter that combines the promoter and splicing based cassettes in tandem with the major portion of the native SMN2 cDNA with luciferase, we performed a genome-wide RNAi screen to identify modulators of SMN protein levels. Luciferase is expressed when full-length SMN protein is generated with luminescence signal proportional to SMN protein levels. Our luciferase-based reporter assay was used to screen Ambion Silencer Select Human Druggable Genome siRNA library (10418 genes, 3 unique siRNAs per gene) using lipid-based reverse transfection.
# Briefly, 1 pmol of each siRNA was spotted to a well of a 384-well plate (Corning, Corning, NY) and 20 microL of serum-free DMEM containing […] of Lipofectamine RNAiMax (Life Technologies, Carlsbad, CA) was then added to each well. Transfected cells were maintained at 37 degrees C in 5% CO2 for 72 hours, 20 microL of ONE-Glo Reagent (Promega) was added to wells for luciferase quantification. Raw luminescence reads were normalized to Ambion(R) Silencer(R) Negative Control #2 siRNA, then log10 transformed. A robust statistical measure of median absolute deviation (MAD) to standardize siRNA activities from each screen. Common Seed Analysis was used to help prioritize clean hits as opposed to those appearing to arise from seed based off-target effects. Candidate modulators were defined as the genes having a MAD score greater than 1.0 or less than -1.0.
row,Sequence,median seed-adjusted z-score
1,GGGAAACUGCUGAUAGUCATT against IKZF2,inactive: 0.514
2,AGAACCUGCUCAAGAAGGATT against SOX14,inactive: -0.296
3,GGAAGCCGAUAUGAUUAAATT against MYT1L,inactive: -0.43
4,CCAACCACAUUAUACGAUATT against RBL2,inactive: 0.0211
5,CCCACGUGGAUAACGAAUATT against CD5,inactive: 0.0416
6,GAAUGUAAGGAUCAUCAAATT against FTSJ2,inactive: -0.277
7,GCACACUUGUCACUCGUGUTT against TP53BP1,inactive: -0.166
8,GAAUAUCGACAUUACAGAUTT against PPEF2,inactive: 0.354
9,AGCCCUUCGUGGUCAAGUUTT against DNASE1L2,inactive: -0.228
10,GCUGUGAAGUGUAUCCCUATT against CAMK1D,inactive: -0.0629
11,CGAUGGGAAUAAUCACGAATT against GFPT2,inactive: 0.412
12,GAACAUCGACUUUGCAGAATT against GDA,inactive: -0.406
13,GGAGAAAGAAUCAACGGAATT against KAT5,inactive: 0.32
14,CACCCAGAGUUGAUAAUGATT against SFRS14,inactive: -0.312
15,CAGGCGAUCAUGGAGCUGATT against PGAM2,inactive: -0.247
16,GCCUACAUCUAGUGAAACATT against PHF20L1,inactive: 0
17,GCAUGGACGAGGCAUUGAATT against RGS7,inactive: 0.415
18,GUACGAGACCUGUUCCAGATT against UCK2,active: -1.51
19,GGAUCUCUUUCACACGAUUTT against NECAB2,inactive: -0.286
20,GUAACAUACUCACCUCGUATT against USP47,inactive: 0.3
21,GCAUUGUGAUCCGAACUAUTT against NPSR1,inactive: -0.314
22,GAAAUUGUGAGGCAGAUGATT against RAP2A,inactive: -0.727
23,GCAUUCCAGCUACCCUGAUTT against SPIB,inactive: 0.0726

row,Sequence,median seed-adjusted z-score
1,CCUUGAUAGCAUCCGGUAATT against BHMT,inactive: 0
2,GAAGCGUACCAAGACCAUUTT against UNC13B,inactive: -0.0216
3,GAAAAUUGAGUUUGAACAATT against MYL1,inactive: 0.24
4,CGAUUGCUUUUCUACCAACTT against SCP2,inactive: 0.413
5,CCUUUGCACUACAUUCGAATT against ASH1L,inactive: -0.197
6,GCCUUACUCUGUACAUAGATT against KLF13,inactive: -0.501
7,CGGCUGCAUAGAAAACGUATT against CNTNAP1,inactive: 0.176
8,AGUGAGAUUUGAAGAGAUUTT against ADC,inactive: -0.157
9,CGAACAGUCUGAAUACGAATT against PCDHA6,inactive: 0.419
10,GAAUCGAGCUCAUCCGAAUTT against CAPN9,inactive: 0.417
11,GGUACACUCUGUGUGCCCATT against EGFL7,inactive: 0.8
12,GGAAUAGCAUGGUUGAGGATT against SLC22A3,inactive: 0.126
13,AGGUUUAUGAUGAUAAAGATT against NDUFS6,inactive: -0.0128
14,GAAGUGCAGUUGGAAAGCATT against NAT11,inactive: 0.37
15,CAAUUACCUUGAAGAAGUUTT against PJA1,inactive: -0.275
16,GCACACUAGCUGAACUAAATT against BUB1B,inactive: -0.579
17,AGAUCCCUUUCAUUCGAGATT against SOX4,inactive: -0.188
18,CUAAGAAACCUAAUGUUGATT against TAF9B,inactive: -0.0247
19,CCAGAGAAAUGAGAUUGGATT against ZNF195,inactive: 0.0753
20,GGACCAUUUGGAUUGUGCATT against SPPL2A,inactive: -0.358
21,GCCGCAAUAUUUUCCGCAATT against HUNK,inactive: -0.183
22,GGAACAUCAUUAAGAAUGATT against NEIL2,inactive: -0.256
23,GGACUGUAAGGAUGAUCUATT against SUPV3L1,inactive: -0.169

# Individual results from the entries so far:
# CACCCAGAGUUGAUAAUGATT against SFRS14 – median seed-adjusted z-score: inactive: -0.312
# GCAUUGUGAUCCGAACUAUTT against NPSR1 – median seed-adjusted z-score: inactive: -0.314
# CGAUUGCUUUUCUACCAACTT against SCP2 – median seed-adjusted z-score: inactive: 0.413

# Reprinted at random: 2 records from the list.
row,Sequence,median seed-adjusted z-score
19,GGAUCUCUUUCACACGAUUTT against NECAB2,inactive: -0.286
8,GAAUAUCGACAUUACAGAUTT against PPEF2,inactive: 0.354

# (further entries)

row,Sequence,median seed-adjusted z-score
1,GUUACGAUGUCACAGAGUATT against MPRIP,inactive: 0.238
2,GAACAGGAGGUGAUACUGATT against COL20A1,inactive: -0.0033
3,CUCUCGCAGUGUUAUCGGATT against CPB1,inactive: -0.376
4,GCAGUCUAUUUGUUAUAGATT against CDH9,inactive: -0.18
5,GAAACCUUCUACAAGCAUATT against GALNTL2,inactive: 0.164
6,GGCUUGCGCAAGAUCAAUATT against ATRNL1,inactive: -0.142
7,CCAUUAACCACAUACCAGATT against TLR7,inactive: 0.189
8,GGUUACGUGUUAUCUACAATT against LRBA,inactive: 0.219
9,CCAUGCUCGUGGUGCACAATT against B3GNT7,active: -1.05
10,GCUUUUACCUUUACAGUCATT against USP37,inactive: 0.0907
11,CCUACAACCUCAUUCGCAATT against PIK3C2B,inactive: -0.653
12,GAUCAUAAGCUGCCCAACATT against HOXD4,inactive: 0.566
13,GAUUAGUCUCCAUCAAUAATT against F2R,inactive: -0.392
14,GACUAUCCCGCUGCCCUUUTT against B3GNT8,inactive: 0.236
15,GUGGAUAACUCAUCCUUAATT against ATP1A2,inactive: 0.248
16,CCAUGGACAACUACCCUAATT against EGR1,inactive: 0.0836
17,CCUUAUUCCUGUUCUCAGUTT against ZNF200,inactive: 0.498
18,CAAAGAACGAUGAGAAUAATT against PCDHA8,inactive: 0
19,GGAUUUCCCUCUGUGGGUATT against DRG2,inactive: -0.175
20,CACCGCAUAUUAAAACGUATT against PTEN,inactive: -0.408
21,GGAUGACGAGCUGAACUUUTT against MGRN1,inactive: -0.318
22,UGAAAAACAUUAACAAGCATT against RNASE7,active: 1.07
23,CCAACCAUAUCUACACUUATT against MYO5B,inactive: -0.212
